From the supplement of paper PMC4962491
± gives the standard deviation of the averaged measurements. The list shows a part of the results, in another mix than the full data. This data set is noisy: repeats of one test often differ as much as different tests do. Peptide text beside a SMILES is read from it.

System: FaDu
Test: mitochondrial oxygen consumption rate normalised to cell number, Z score over the library; higher = higher oxygen consumption (negative = OCR reduction)
Conditions: treatment time 24 h, assay medium: 5 mM galactose, 5 mM pyruvate, 4 mM glutamine
Method: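 Primary screen: FaDu cells were incubated 24 h with Pharmakon 1600 / TDI oncology set compounds at 2 or 10 uM. Mitochondrial-specific OCR (basal minus 2 uM antimycin A) was measured on a Seahorse XF96 in assay medium with 5 mM galactose, 5 mM pyruvate and 4 mM glutamine, then corrected for Hoechst cell number and expressed as a Z score […]. Compounds that cut cell number by >66% were excluded. Two repeats.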

SMILES | mitochondrial oxygen consumption rate normalised (2 µM) | mitochondrial oxygen consumption rate normalised (10 µM)
Nc1ccc(S(=O)(=O)Nc2nccs2)cc1 | -1.01 ± 0.35 | –
CN[C@H]1CC[C@@H](c2ccc(Cl)c(Cl)c2)c2ccccc21 | -0.314 ± 0.79 | –
CC[C@H]1OC(=O)[C@H](C)[C@@H](O[C@H]2C[C@@](C)(OC)[C@@H](O)[C@H](C)O2)[C@H](C)[C@@H](O[C@@H]2O[C@H](C)C[C@H](N(C)C)[C@H]2O)[C@](C)(O)C[C@@H](C)CN(C)[C@H](C)[C@@H](O)[C@]1(C)O | 0.241 ± 1.8 | –
CCCCCCOc1ccccc1C(N)=O | -0.126 ± 0.21 | –
NC[C@H](O)c1ccc(O)c(O)c1 | 0.567 ± 0.44 | –
CCN(CC)CCNC(=O)c1ccc(N)cc1 | -0.12 ± 0.026 | –
O=C(O)C1=C(CSc2nnnn2CS(=O)(=O)O)CS[C@@H]2[C@H](NC(=O)[C@H](O)c3ccccc3)C(=O)N12 | -0.712 ± 0.12 | –
O=C(CCCl)NCCc1ccccc1 | 0.7 ± 1 | –
CC(C)Oc1ccc2c(=O)c(-c3ccccc3)coc2c1 | -0.13 ± 0.18 | –
CC(=O)Nc1nnc(S(N)(=O)=O)s1 | 0.734 ± 0.52 | –
CC(=O)Nc1c(I)cc(I)c(C(=O)O)c1I | 1.09 ± 1.1 | –
Cc1cc2cc3c(C)cc(=O)oc3c(C)c2o1 | -0.219 ± 0.42 | –
CCCCOc1cc(C(=O)OCCN(CC)CC)ccc1N | 0.34 ± 0.17 | –
C[N+](C)(C)CC(O)CC(=O)[O-] (stereo unspecified) | -0.695 ± 0.23 | –
COC(=O)[C@H](Cc1ccccc1)NC(=O)[C@@H](N)CC(=O)O (H-Asp-Phe-OMe) | 0.939 ± 0.71 | –
CO/N=C(\C(=O)N[C@@H]1C(=O)N2C(C(=O)O)=C(COC(C)=O)CS[C@H]12)c1csc(N)n1 | 0.928 ± 0.49 | –
O=C(NCCCN1CCOCC1)c1ccc(Cl)cc1 | 0.598 ± 0.27 | –
COc1cc(CNC(=O)CCCC/C=C/C(C)C)ccc1O | 0.255 ± 0.27 | –
C[C@]12CC[C@@H]3c4ccc(O)cc4C[C@@H](CCCCCCCCC[S+]([O-])CCCC(F)(F)C(F)(F)F)[C@H]3[C@@H]1CC[C@@H]2O (stereo partly specified) | 0.669 ± 1.3 | –
COc1ccc(-c2ccc3cc(C(=O)O)ccc3c2)cc1C12CC3CC(CC(C3)C1)C2 | -0.151 ± 0.26 | –
CCN1CCCC1CNC(=O)c1cc(S(N)(=O)=O)ccc1OC (stereo unspecified) | 0.272 ± 0.4 | –

Part of the list above, as tab-separated lines.
SMILES	mitochondrial oxygen consumption rate normalised (2 µM)	mitochondrial oxygen consumption rate normalised (10 µM)
CCCCCCOc1ccccc1C(N)=O	-0.126 ± 0.21	–
NC[C@H](O)c1ccc(O)c(O)c1	0.567 ± 0.44	–
CCN(CC)CCNC(=O)c1ccc(N)cc1	-0.12 ± 0.026	–
O=C(O)C1=C(CSc2nnnn2CS(=O)(=O)O)CS[C@@H]2[C@H](NC(=O)[C@H](O)c3ccccc3)C(=O)N12	-0.712 ± 0.12	–
O=C(CCCl)NCCc1ccccc1	0.7 ± 1	–

(list continues)

SMILES | mitochondrial oxygen consumption rate normalised (2 µM) | mitochondrial oxygen consumption rate normalised (10 µM)
N[C@@H](COP(=O)(O)O)C(=O)O | 0.689 ± 1.4 | –
Cc1cccc(N(C)C(=S)Oc2ccc3ccccc3c2)c1 | 0.186 ± 0.12 | –
O=c1[nH]c(=O)n([C@H]2C[C@H](O)[C@@H](CO)O2)cc1I | 1.73 ± 0.48 | –
CCCCc1oc2ccccc2c1C(=O)c1cc(I)c(OCCN(CC)CC)c(I)c1 | 0.701 ± 0.032 | –
O=C(O)c1cccnc1 | 0.431 ± 0.04 | –
CCC(=O)OCC(=O)[C@@]1(OC(=O)CC)[C@@H](C)C[C@H]2[C@@H]3CCC4=CC(=O)C=C[C@]4(C)[C@@]3(F)[C@@H](O)C[C@@]21C | 0.287 ± 0.33 | –
CC1(C)O[C@@H]2C[C@H]3[C@@H]4C[C@H](F)C5=CC(=O)CC[C@]5(C)[C@H]4[C@@H](O)C[C@]3(C)[C@]2(C(=O)CO)O1 | -0.256 ± 0.57 | –
NNC(=O)c1ccncc1 | -0.733 ± 0.55 | –
CN1CCCN=C1/C=C/c1cccs1 | -0.789 ± 0.38 | –
CCC[C@@H]1C[C@@H](C(=O)N[C@@H]([C@H]2O[C@H](SC)[C@H](O)[C@@H](O)[C@H]2O)[C@@H](C)O)N(C)C1 | -0.898 ± 0.38 | –
CCCCC(CC)COc1ccc(-c2nc(-c3ccc(OC)cc3)nc(-c3ccc(OCC(CC)CCCC)cc3O)n2)c(O)c1 (stereo unspecified) | 0.579 ± 1.4 | 0.282 ± 0.45
O=c1cc[nH]c(=O)[nH]1 | 1.05 ± 0.88 | –
CCOc1ccc(Cc2nccc3cc(OCC)c(OCC)cc23)cc1OCC | -0.998 ± 0.28 | –
O=C(Nc1ccc([N+](=O)[O-])cc1Cl)c1cc(Cl)ccc1O | 2.08 ± 1.6 | –
C#C[C@]1(O)CC[C@H]2[C@@H]3CCC4=Cc5oncc5C[C@]4(C)[C@H]3CC[C@@]21C | -0.078 ± 1.4 | –
Nc1ccc(S(=O)(=O)O)cc1.Nc1ccc(S(=O)(=O)O)cc1.[Zn] | 0.922 ± 1.1 | 1.04 ± 0.43
CC12CC3CC(C)(C1)CC(N)(C3)C2 | 0.00395 ± 0.27 | –
CN1C(C(=O)Nc2ccccn2)=C(O)c2sc(Cl)cc2S1(=O)=O | 0.313 ± 1.3 | –
C[N+](C)(C)C[C@H](O)CC(=O)[O-] | -0.0736 ± 0.65 | –
CC(CN(C)C)CN1c2ccccc2CCc2ccccc21 (stereo unspecified) | -0.465 ± 0.14 | –
OC(CCN1CCCC1)(c1ccccc1)C1CCCCC1 (stereo unspecified) | 0.205 ± 0.051 | –

SMILES | mitochondrial oxygen consumption rate normalised (2 µM) | mitochondrial oxygen consumption rate normalised (10 µM)
CC(C)NCC(O)COc1cccc2[nH]ccc12 (stereo unspecified) | 1.56 ± 2.1 | –
CC(C)(C)CC(C)(C)c1ccc(OCCOCC[N+](C)(C)Cc2ccccc2)cc1 | -4.121 ± 0.028 | –
Cn1nnc2c(C(N)=O)ncn2c1=O [Temozolomide] | 0.713 ± 0.019 | –
Cn1nnc2c(C(N)=O)ncn2c1=O | 0.0541 ± 0.22 | –
CN1[C@@H]2CC[C@H]1C[C@@H](OC(=O)C(O)c1ccccc1)C2 (stereo partly specified) | -0.31 ± 0.75 | –
CCCCOc1ccc(C(=O)CCN2CCCCC2)cc1 | -0.0554 ± 0.73 | -0.0802 ± 0.69
C=C1CC[C@H](O)C/C1=C/C=C1\CCC[C@]2(C)[C@@H]([C@H](C)/C=C/[C@H](C)C(C)C)CC[C@@H]12 | -0.572 ± 0.85 | –
Nc1nc(N)c2nc(-c3ccccc3)c(N)nc2n1 | 0.731 ± 0.33 | –
CC(C)(C)NC(=O)[C@H]1CC[C@H]2[C@@H]3CC[C@H]4NC(=O)C=C[C@]4(C)[C@H]3CC[C@]12C | -0.345 ± 0.45 | –
Cc1c(Nc2ncccc2C(=O)O)cccc1C(F)(F)F | 0.402 ± 1.4 | –
CC[C@H](c1ccc(O)cc1)[C@@H](CC)c1ccc(O)cc1 | -0.861 ± 0.15 | –
CC(=O)OCC(=O)[C@@]1(O)CC[C@H]2[C@@H]3CCC4=CC(=O)C=C[C@]4(C)[C@H]3[C@@H](O)C[C@@]21C | 0.239 ± 0.25 | –
C[C@]12CCC(=O)C=C1CC[C@@H]1[C@@H]2[C@@H](O)C[C@@]2(C)[C@H]1CC[C@]2(O)C(=O)COP(=O)(O)O | -0.254 ± 0.21 | –
CC1(C)O[C@@H]2C[C@H]3[C@@H]4C[C@H](F)C5=CC(=O)C=C[C@]5(C)[C@H]4[C@@H](O)C[C@]3(C)[C@]2(C(=O)CO)O1 | 1.62 ± 0.97 | –
C[C@H](CS)C(=O)N1CCC[C@H]1C(=O)O | 0.771 ± 0.24 | –
CN(Cc1cc(Br)cc(Br)c1N)C1CCCCC1 | 0.619 ± 0.32 | –
NCCc1ccc(O)c(O)c1 | -0.836 ± 0.97 | –
CCOC(=O)CC(=O)N1CCSC1COc1ccccc1OC (stereo unspecified) | -0.889 ± 0.56 | –
CC(=O)Oc1ccc(C(c2ccc(OC(C)=O)cc2)c2ccccn2)cc1 | 0.134 ± 0.01 | –
CCC(C)(C)C(=O)O[C@H]1C[C@@H](C)C=C2C=C[C@H](C)[C@H](CC[C@@H]3C[C@@H](O)CC(=O)O3)[C@H]21 | 0.506 ± 1.2 | –
C[C@@H]1CN(c2c(F)c(F)c3c(=O)c(C(=O)O)cn(C4CC4)c3c2F)C[C@H](C)N1 | 0.104 ± 0.0086 | –
